According to PMC4424349:

Columns and labels:
[1] = target: T1, PfMLC-B-GFP (P. falciparum myosin light chain B with C-terminal GFP) (Plasmodium falciparum 3D7) (UniProt Q8III1); experiment: affinity purification with mass spectrometry; GFP-Trap immunoprecipitates of schizont lysates, SDS-PAGE, trypsin digestion, LC-MS/MS; proteins with three or more peptides and absent from the 3D7 control
T1 sequence: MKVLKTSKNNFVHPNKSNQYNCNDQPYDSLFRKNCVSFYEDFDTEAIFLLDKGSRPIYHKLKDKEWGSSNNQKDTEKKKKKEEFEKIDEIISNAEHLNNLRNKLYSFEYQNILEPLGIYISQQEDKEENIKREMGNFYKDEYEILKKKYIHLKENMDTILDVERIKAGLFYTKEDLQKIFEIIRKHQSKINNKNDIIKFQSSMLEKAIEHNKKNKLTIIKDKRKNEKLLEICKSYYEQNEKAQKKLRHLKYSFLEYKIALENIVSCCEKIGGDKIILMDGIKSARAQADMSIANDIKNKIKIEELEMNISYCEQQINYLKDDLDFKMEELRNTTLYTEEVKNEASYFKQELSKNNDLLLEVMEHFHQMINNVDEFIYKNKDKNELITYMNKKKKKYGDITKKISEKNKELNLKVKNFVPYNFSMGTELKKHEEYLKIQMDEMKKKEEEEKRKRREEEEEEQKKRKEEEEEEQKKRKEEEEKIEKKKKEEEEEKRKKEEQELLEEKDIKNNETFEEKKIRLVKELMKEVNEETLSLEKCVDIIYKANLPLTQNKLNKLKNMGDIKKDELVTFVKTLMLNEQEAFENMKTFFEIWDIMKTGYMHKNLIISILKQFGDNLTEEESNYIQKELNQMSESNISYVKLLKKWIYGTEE

[2] = target: T2, PfMyoB-GFP (Plasmodium falciparum myosin B with C-terminal GFP) (Plasmodium falciparum 3D7), Q8I465; experiment: as above; details: remark: other sources report otherwise
T2 chain: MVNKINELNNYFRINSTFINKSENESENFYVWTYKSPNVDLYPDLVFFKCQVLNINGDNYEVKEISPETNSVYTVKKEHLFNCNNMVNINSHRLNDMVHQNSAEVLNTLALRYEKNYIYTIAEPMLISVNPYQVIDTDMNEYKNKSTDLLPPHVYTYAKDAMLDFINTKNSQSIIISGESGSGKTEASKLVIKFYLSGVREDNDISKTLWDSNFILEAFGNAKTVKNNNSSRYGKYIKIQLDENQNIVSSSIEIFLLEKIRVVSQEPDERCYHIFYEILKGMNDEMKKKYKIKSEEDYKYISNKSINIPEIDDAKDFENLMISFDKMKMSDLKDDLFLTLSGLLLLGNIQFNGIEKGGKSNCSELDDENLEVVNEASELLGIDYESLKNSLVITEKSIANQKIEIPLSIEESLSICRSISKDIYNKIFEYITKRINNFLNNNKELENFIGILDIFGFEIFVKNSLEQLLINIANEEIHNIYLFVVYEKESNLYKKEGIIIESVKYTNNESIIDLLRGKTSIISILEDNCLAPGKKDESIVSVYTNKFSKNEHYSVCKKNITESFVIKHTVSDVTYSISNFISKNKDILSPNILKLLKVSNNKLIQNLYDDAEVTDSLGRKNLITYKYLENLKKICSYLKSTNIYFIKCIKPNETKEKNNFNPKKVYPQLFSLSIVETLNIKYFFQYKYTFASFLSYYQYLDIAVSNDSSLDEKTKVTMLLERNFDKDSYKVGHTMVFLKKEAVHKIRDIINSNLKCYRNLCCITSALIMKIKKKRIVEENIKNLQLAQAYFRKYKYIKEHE

B1: Myosin B (MyoB), endogenous untagged (protein, UniProt Q8I465 1-801)
chain: T2 chain
binding [1]: binds

B2: myosin A tail domain-interacting protein (MTIP), Q8I4W8 1-204 (protein)
chain: MKQECNVCYFNLPDPESTLGPYDNELNYFTWGPGFEYEPEPQRKPLSIEESFENSEESEESVADIQQLEEKVDESDVRIYFNEKSSGGKISIDNASYNARKLGLAPSSIDEKKIKELYGDNLTYEQYLEYLSICVHDKDNVEELIKMFAHFDNNCTGYLTKSQMKNILTTWGDALTDQEAIDALNAFSSEDNIDYKLFCEDILQ
binding [2]: no binding

No constants are given. Whether binding was seen depends on the method and setting. In cells and extracts the contact can be indirect. These calls come from enrichment with a bait or labelling near it, and not all partners need be listed. For some assays here: No binding means not detected with the bait. Sequences can lack the tags named with a protein.
